Data: the supplement of paper PMC11006884
This is a selection; strong and weak results do not stand in their true shares.

The chains behind the UniProt entries cited, without tags or fusion partners. Where a name states a change or a piece, a line headed by the entry shows the natural chain unless it says otherwise.
UniProt P56589: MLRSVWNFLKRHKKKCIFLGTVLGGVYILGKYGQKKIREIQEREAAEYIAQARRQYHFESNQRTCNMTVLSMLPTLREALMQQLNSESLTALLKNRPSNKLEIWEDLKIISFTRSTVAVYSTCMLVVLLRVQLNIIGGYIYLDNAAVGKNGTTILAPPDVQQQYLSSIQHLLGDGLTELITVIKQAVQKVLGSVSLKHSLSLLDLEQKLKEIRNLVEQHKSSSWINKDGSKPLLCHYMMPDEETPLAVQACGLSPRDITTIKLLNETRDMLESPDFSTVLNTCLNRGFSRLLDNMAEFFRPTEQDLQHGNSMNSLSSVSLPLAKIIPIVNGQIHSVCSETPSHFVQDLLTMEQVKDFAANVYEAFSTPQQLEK
UniProt P53041: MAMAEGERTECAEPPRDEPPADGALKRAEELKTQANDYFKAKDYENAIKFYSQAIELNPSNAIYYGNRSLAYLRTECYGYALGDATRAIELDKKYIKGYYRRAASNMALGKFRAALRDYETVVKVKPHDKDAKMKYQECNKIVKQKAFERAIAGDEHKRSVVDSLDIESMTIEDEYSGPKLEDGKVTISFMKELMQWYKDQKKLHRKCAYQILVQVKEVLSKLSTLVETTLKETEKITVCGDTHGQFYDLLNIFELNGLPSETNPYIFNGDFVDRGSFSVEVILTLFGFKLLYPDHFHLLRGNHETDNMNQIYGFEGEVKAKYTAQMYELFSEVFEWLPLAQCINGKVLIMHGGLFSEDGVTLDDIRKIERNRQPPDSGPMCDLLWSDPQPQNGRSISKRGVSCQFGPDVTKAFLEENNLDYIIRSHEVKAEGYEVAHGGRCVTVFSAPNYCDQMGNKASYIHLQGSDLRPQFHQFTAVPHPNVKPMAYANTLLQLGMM
UniProt P55795: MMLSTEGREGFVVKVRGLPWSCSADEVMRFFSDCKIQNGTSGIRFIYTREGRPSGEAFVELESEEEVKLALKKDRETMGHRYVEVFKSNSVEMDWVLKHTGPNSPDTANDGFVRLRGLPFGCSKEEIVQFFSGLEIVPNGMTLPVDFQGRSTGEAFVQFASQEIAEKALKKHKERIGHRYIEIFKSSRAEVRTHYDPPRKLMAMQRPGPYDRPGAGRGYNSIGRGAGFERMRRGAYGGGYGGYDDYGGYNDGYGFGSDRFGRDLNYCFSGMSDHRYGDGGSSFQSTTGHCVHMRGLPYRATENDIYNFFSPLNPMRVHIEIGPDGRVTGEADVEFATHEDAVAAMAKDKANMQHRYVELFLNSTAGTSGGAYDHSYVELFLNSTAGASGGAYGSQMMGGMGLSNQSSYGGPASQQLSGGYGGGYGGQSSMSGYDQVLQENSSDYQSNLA
UniProt P52429: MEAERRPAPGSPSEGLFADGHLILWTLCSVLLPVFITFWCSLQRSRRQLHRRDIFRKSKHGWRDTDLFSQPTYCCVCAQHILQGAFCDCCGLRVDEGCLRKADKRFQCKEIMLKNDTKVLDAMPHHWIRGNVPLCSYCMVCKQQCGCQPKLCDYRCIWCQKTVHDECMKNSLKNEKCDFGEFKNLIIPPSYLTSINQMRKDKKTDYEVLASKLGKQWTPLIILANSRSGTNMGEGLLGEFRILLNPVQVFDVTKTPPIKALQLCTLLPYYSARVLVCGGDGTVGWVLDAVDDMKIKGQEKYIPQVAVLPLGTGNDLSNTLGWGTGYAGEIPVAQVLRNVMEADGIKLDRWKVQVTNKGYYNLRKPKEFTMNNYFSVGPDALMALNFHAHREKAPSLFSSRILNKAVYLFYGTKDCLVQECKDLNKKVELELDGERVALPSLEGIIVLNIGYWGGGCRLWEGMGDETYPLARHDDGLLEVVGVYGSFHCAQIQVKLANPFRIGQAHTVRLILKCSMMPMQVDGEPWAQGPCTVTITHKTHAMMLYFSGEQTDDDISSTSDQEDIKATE
UniProt P54132: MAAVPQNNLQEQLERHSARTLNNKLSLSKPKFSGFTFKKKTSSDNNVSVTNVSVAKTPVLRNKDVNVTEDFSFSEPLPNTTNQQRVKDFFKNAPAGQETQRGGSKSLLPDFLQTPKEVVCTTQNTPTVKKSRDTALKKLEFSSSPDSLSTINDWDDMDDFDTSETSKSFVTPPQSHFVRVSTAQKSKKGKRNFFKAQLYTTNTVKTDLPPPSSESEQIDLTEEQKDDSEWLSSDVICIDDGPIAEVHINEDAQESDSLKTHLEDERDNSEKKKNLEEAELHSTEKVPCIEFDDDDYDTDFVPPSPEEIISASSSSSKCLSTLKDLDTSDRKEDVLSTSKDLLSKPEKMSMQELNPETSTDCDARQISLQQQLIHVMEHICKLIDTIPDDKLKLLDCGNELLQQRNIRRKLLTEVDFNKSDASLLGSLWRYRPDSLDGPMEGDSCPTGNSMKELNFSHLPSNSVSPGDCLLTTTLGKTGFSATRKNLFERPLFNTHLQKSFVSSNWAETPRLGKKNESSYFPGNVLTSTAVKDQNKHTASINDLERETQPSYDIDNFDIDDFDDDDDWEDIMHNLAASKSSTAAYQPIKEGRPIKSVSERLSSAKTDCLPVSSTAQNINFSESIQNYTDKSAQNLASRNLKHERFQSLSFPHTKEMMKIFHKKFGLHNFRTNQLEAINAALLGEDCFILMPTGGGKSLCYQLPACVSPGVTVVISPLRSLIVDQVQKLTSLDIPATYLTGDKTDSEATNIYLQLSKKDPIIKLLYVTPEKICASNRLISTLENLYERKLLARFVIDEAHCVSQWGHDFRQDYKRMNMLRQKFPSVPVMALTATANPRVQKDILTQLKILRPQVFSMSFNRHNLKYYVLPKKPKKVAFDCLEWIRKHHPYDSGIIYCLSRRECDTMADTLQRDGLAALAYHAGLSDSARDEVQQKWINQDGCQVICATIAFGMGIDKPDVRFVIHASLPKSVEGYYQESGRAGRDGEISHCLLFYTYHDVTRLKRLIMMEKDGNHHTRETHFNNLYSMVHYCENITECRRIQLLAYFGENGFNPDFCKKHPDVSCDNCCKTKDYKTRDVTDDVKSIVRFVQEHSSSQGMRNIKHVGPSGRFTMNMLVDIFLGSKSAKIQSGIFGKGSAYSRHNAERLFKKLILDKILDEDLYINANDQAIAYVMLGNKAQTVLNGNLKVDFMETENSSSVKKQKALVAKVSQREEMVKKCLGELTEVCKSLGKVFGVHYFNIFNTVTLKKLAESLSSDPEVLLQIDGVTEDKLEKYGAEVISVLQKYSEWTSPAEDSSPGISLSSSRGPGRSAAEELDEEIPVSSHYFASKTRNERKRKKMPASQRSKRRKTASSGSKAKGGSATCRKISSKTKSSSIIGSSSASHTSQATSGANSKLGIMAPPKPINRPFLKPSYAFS
UniProt P55060: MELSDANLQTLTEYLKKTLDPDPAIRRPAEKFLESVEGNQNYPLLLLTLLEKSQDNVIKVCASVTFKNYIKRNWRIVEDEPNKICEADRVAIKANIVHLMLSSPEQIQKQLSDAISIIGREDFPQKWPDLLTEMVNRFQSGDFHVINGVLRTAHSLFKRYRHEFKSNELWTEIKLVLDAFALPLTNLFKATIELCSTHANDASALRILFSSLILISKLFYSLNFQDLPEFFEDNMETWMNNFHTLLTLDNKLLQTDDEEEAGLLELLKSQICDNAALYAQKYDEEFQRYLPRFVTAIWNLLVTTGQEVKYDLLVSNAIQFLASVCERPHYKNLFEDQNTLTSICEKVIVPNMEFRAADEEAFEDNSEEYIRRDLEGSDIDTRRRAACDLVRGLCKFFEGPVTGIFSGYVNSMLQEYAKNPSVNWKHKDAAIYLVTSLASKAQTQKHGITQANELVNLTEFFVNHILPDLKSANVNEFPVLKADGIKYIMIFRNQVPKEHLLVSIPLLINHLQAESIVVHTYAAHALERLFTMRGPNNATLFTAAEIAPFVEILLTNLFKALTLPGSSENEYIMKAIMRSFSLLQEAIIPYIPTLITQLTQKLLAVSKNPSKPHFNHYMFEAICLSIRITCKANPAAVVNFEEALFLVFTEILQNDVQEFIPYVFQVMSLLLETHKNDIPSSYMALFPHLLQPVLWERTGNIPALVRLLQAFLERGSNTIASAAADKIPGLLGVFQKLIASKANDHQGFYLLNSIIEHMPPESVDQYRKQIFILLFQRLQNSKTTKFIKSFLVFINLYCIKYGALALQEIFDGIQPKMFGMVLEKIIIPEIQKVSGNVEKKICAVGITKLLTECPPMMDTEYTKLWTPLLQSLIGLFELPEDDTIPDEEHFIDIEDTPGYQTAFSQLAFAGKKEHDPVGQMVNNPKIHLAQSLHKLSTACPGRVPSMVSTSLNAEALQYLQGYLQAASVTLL
UniProt P55072, whole entry, looked up: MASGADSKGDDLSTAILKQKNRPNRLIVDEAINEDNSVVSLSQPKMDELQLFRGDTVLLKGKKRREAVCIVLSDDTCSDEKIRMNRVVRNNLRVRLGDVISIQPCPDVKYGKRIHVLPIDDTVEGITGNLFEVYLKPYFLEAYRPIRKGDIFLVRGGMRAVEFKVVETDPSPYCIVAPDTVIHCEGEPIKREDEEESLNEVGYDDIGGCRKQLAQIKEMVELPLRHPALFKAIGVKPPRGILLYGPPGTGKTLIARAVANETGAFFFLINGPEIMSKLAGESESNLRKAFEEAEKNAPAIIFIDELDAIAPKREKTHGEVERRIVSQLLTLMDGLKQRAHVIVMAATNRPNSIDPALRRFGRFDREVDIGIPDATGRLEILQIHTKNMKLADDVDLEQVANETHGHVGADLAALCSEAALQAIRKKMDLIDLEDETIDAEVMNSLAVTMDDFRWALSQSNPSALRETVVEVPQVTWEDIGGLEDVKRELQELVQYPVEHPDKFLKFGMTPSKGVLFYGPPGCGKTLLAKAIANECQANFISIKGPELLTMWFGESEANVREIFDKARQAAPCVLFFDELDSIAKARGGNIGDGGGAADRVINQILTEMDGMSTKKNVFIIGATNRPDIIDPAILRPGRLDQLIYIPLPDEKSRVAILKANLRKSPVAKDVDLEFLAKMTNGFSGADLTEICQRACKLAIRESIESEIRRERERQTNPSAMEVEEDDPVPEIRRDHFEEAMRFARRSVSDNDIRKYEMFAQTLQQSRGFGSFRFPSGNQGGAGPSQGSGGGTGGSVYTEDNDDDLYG
UniProt P53384: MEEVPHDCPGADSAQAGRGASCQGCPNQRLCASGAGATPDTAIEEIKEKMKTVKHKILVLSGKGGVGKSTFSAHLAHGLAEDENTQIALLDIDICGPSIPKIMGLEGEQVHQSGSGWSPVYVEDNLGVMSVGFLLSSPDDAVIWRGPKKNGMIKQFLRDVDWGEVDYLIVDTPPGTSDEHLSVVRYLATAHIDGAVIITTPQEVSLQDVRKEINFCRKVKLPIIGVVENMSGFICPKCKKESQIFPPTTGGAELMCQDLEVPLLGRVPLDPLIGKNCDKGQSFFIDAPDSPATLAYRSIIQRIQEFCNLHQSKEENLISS
UniProt P55036: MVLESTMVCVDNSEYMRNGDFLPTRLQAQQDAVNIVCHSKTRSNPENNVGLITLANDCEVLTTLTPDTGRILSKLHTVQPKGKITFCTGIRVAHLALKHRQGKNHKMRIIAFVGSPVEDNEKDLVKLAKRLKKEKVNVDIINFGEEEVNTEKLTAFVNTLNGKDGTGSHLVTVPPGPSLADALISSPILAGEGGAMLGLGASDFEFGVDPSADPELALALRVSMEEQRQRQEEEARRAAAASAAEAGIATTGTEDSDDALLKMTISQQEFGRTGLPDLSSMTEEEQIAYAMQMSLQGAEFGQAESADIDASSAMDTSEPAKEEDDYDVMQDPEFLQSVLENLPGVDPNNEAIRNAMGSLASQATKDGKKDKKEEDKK
UniProt P52306: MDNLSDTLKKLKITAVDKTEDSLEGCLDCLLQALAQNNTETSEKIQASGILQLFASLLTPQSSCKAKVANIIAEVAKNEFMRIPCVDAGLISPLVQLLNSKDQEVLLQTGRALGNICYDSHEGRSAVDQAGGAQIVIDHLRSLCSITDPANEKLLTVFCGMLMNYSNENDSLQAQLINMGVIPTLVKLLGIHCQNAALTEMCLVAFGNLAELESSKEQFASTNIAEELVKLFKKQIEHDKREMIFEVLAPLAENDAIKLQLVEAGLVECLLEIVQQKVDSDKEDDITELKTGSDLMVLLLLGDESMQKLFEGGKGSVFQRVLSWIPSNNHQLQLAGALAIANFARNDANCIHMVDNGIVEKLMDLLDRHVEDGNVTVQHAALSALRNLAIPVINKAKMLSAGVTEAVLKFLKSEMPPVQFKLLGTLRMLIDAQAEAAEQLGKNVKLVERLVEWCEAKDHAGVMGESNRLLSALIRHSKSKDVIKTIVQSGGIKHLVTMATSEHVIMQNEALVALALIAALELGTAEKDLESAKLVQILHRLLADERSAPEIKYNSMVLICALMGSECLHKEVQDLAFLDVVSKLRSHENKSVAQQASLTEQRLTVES
UniProt P61088: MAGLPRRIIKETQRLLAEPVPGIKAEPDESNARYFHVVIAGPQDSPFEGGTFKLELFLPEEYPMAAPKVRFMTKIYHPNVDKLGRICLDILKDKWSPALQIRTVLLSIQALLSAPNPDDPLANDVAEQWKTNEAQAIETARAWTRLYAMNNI

Compound: COC(=O)C#Cc1ccccc1 [methyl 3-phenylpropiolate]
Experiment: log2 ratio of iodoacetamide-alkyne labeling of the cysteine site, DMSO over compound (competition); higher = stronger covalent engagement of the cysteine by the compound, active = 1 or more
Conditions: 500 µM; treatment time 1 h; system: HEK293T cell lysate
How it was run: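 Electrophile (500 µM) or vehicle was added to HEK293T lysate (2 mg/mL) for 1 h at ambient temperature before iodoacetamide alkyne labelling (1 h) and click coupling to sCIP-TMT reagents. After pooling, overnight trypsin digestion at 37 °C, streptavidin enrichment and acid elution, peptides were measured by Orbitrap Eclipse LC-MS/MS with FAIMS and quantified in FragPipe. Each cysteine's log2 competition ratio compares mean control-channel with mean compound-channel reporter intensity, control over compound. Data came from duplicate channels across three replicates, excluding cysteines quantified in only one replicate.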

log2 ratio of iodoacetamide-alkyne labeling, inactive:
NAP1L1 C88 (UniProt P55209) -0.0373
PEX3 C65 (UniProt P56589) 0.385
PPP5C C11 (UniProt P53041) 0.16
HNRNPH2 C267 (UniProt P55795) 0.292
GEMIN4 C9 (UniProt P57678) 0.488
EIF3B C420 (UniProt P55884) -0.172
UniProt P61081_C65 -0.0454
UniProt P61077_C85 0.317
DGKE C264 (UniProt P52429) 0.223
HNRNPM C114 (UniProt P52272) -0.0182
ADAR C851 (UniProt P55265) -0.118
MSH6 C1158 (UniProt P52701) -0.0115
RARS C32 (UniProt P54136) 0.605
UniProt P60709_C285 0.0555
BLM C698 (UniProt P54132) 0.6
UniProt P61978_C184 0.0026
CSE1L C272 (UniProt P55060) 0.133
HNRNPA3 C85 (UniProt P51991) 0.23
UniProt P55072_C209 0.132
EIF5 C59 (UniProt P55010) 0.0949
NUBP1 C256 (UniProt P53384) 0.105
RPS3A C201 (UniProt P61247) 0.0769
UniProt P61221_C201 0.034
COPA C975 (UniProt P53621) 0.0469
RRP1 C274 (UniProt P56182) 0.423
KPNA1 C337 (UniProt P52294) 0.228
ADAR C1224 (UniProt P55265) 0.987
PSMD4 C37 (UniProt P55036) 0.105
UniProt P55072_C691 0.0155
AGFG1 C89 (UniProt P52594) 0.163
RAP1GDS1 C144 (UniProt P52306) 0.0633
ALDH18A1 C546 (UniProt P54886) 0.0415
MARS C441 (UniProt P56192) -0.00716
UniProt P61088_C87 0.15
KPNA2 C272 (UniProt P52292) 0.0583
HSD17B4 C277 (UniProt P51659) 0.0673
PSMD7 C116 (UniProt P51665) 0.00567

An excerpt of the results above:
log2 ratio of iodoacetamide-alkyne labeling, inactive:
MSH6 C1158 (UniProt P52701) -0.0115
RARS C32 (UniProt P54136) 0.605
